Results are given in words; binding and its absence hold for the method and conditions named. Binding seen in cells or lysates may run through a third protein. Binding calls can cover weak binding; strength is not graded here. Tags and fused reporters may be left off the sequences shown.
Target: PPTC7-FLAG (wild type) (human) (UniProt Q8NI37)
Experiment: co-IP; PPTC7-FLAG (wild type or mutant) as bait on anti-FLAG beads, 1-2 h at 4 °C, from transfected U2OS, U2OS FBXL4 KO (with or without FBXL4(HA) variants), 293T or 293T PPTC7 KO cells; with or without DFP 24 h or MLN4924; Tris-Triton lysis buffer (50 mM Tris-Cl pH 7.5, 150 mM NaCl, 1% Triton) …

Protein sequences, listed by entry. Tags and fused reporters are not part of them. Lines headed by an entry give the natural chain unless they say otherwise; changes in a name come on top.
UniProt Q8NI37: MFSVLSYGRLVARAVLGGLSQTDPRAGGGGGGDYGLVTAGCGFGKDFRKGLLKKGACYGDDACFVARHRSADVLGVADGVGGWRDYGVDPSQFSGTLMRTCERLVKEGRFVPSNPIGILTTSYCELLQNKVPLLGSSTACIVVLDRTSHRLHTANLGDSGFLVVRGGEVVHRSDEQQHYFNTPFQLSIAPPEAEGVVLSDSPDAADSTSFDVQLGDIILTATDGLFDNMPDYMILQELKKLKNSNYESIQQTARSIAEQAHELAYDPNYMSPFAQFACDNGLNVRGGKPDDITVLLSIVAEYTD

binding: binds
B1: HA-tagged FBXL4 wild type (protein, UniProt Q9UKA2 1-621)
chain: MSPVFPMLTVLTMFYYICLRRRARTATRGEMMNTHRAIESNSQTSPLNAEVVQYAKEVVDFSSHYGSENSMSYTMWNLAGVPNVFPSSGDFTQTAVFRTYGTWWDQCPSASLPFKRTPPNFQSQDYVELTFEQQVYPTAVHVLETYHPGAVIRILACSANPYSPNPPAEVRWEILWSERPTKVNASQARQFKPCIKQINFPTNLIRLEVNSSLLEYYTELDAVVLHGVKDKPVLSLKTSLIDMNDIEDDAYAEKDGCGMDSLNKKFSSAVLGEGPNNGYFDKLPYELIQLILNHLTLPDLCRLAQTCKLLSQHCCDPLQYIHLNLQPYWAKLDDTSLEFLQSRCTLVQWLNLSWTGNRGFISVAGFSRFLKVCGSELVRLELSCSHFLNETCLEVISEMCPNLQALNLSSCDKLPPQAFNHIAKLCSLKRLVLYRTKVEQTALLSILNFCSELQHLSLGSCVMIEDYDVIASMIGAKCKKLRTLDLWRCKNITENGIAELASGCPLLEELDLGWCPTLQSSTGCFTRLAHQLPNLQKLFLTANRSVCDTDIDELACNCTRLQQLDILGTRMVSPASLRKLLESCKDLSLLDVSFCSQIDNRAVLELNASFPKVFIKKSFTQ
